Test results taken from PubChem BioAssay AID248 (DTP/NCI, 2004).
The list does not hold the whole screen: it is rich in T/C values a quarter to a half above the control, in often repeated tests (any T/C) and in doses without a T/C. Further doses and runs are listed elsewhere. T/C is the treated group as % of the vehicle group. Some entries give survivors of the animals treated and no T/C: the source files T/C as zero there, which appears to mark a toxic dose or a test without result, not a measured value. Some doses without a T/C left all or most animals alive at the check, yet need not have been tolerated: survival well below the control is almost never listed, so the zero probably covers shortened survival too. Counts of survivors are from the toxicity check (mostly the fifth day) where no day follows; animals may have died later. Schedules are NCI's codes, taken here to give the interval after Q, in days (D) or hours (H), and the number of doses after X. Some entries hold several experiments; their values stand side by side, smallest first. Some schedule codes hold Z or #, which are not explained here. For survival time, this PubChem deposit counts one and a half times the control or more as active, and values a quarter to a half above the control carry no call in these data; other NCI protocols may use other cut-offs. Some T/C values are followed by the survivors on the day toxicity was checked, most often the fifth; without a count, all were alive then.

Tested on: L1210 leukemia ip in BDF1 mice, survival T/C
Assay: NCI In Vivo Anticancer Drug Screen. Data for tumor model L1210 Leukemia (intraperitoneal) in B6D2F1 (BDF1) mice
Settings: T/C endpoint: mean survival time, higher T/C = longer survival
[1] = dose: 100.0 mg/kg/injection, schedule: Q01DX001 (ip), vehicle: Klucel (hydroxypropylcellulose) (HPC)
[2] = dose: 200.0 mg/kg/injection, schedule: Q01DX001 (ip), vehicle: Klucel (hydroxypropylcellulose) (HPC)
[3] = dose: 200.0 mg/kg/injection, schedule: Q04DX003 (ip), vehicle: saline
[4] = dose: 400.0 mg/kg/injection, schedule: Q04DX003 (ip), vehicle: saline with Tween-80
[5] = dose: 400.0 mg/kg/injection, schedule: Q04DX003 (ip), vehicle: saline
[6] = dose: 400.0 mg/kg/injection, schedule: Q04DX003 (ip), vehicle: Klucel (hydroxypropylcellulose) (HPC)
[7] = dose: 400.0 mg/kg/injection, schedule: Q01DX001 (ip), vehicle: saline
[8] = dose: 100.0 mg/kg/injection, schedule: Q01DX001 (ip), vehicle: saline
[9] = dose: 400.0 mg/kg/injection, schedule: Q04DX002 (ip), vehicle: saline

CCC(O)C[As](=O)(O)c1ccc(Cl)cc1 (stereo not drawn)
survivor count (dose: 3.13 mg/kg/injection, schedule: Q01DX009 (ip), vehicle: saline with Tween-80): 3 of 3 | survivor count (dose: 6.25 mg/kg/injection, schedule: Q01DX009 (ip), vehicle: saline with Tween-80): 0 of 3 and 3 of 6 | survivor count (dose: 12.5 mg/kg/injection, schedule: Q01DX009 (ip), vehicle: saline with Tween-80): 0 of 6 | survivor count (dose: 25.0 mg/kg/injection, schedule: Q01DX009 (ip), vehicle: saline with Tween-80): 0 of 6

O=C(c1ccc(Cl)cc1)C(C(c1ccc([N+](=O)[O-])cc1)N1CCCCC1)N1CCCCC1 (stereo not drawn)
survivor count [1]: 6 of 6 | survivor count [2]: 5 of 6

CSc1nn[nH]n1
survivor count [3]: 3 of 6 | survivor count (dose: 400.0 mg/kg/injection, schedule: Q01DX001 (ip), vehicle: acetone): 0 of 6

CCN(CC)CCN1C(=O)CN=C(c2ccccn2)c2cc(Cl)ccc21
survivor count [4]: 1 of 6

CCN(CC)CC(C)OC(=O)CCN1CC1 (stereo not drawn)
survivor count (dose: 100.0 mg/kg/injection, schedule: Q01DX009 (ip), vehicle: saline): 3 of 6 | survivor count [5]: 0 of 6

CC(=O)c1sccc1C
survivor count (dose: 50.0 mg/kg/injection, schedule: Q04DX003 (ip), vehicle: Klucel (hydroxypropylcellulose) (HPC)): 3 of 6 | survivor count (dose: 100.0 mg/kg/injection, schedule: Q04DX003 (ip), vehicle: Klucel (hydroxypropylcellulose) (HPC)): 0 of 6 | survivor count (dose: 200.0 mg/kg/injection, schedule: Q04DX003 (ip), vehicle: Klucel (hydroxypropylcellulose) (HPC)): 0 of 6 | survivor count [6]: 0 of 6

CCC1OCCN1C(C)C (stereo not drawn)
T/C (dose: 40.0 mg/kg/injection, schedule: Q01DX Z (ip), vehicle: other): 129 % of control | T/C (dose: 60.0 mg/kg/injection, schedule: Q01DX Z (ip), vehicle: other): 125 and 127 % of control | survivor count (dose: 200.0 mg/kg/injection, schedule: Q01DX Z (ip), vehicle: other): 0 of 6

O=S(=O)(CCN1CCCCC1)c1ccc(F)cc1
survivor count [7]: 0 of 4

NC(CSS(=O)(=O)O)=NCCc1ccc(O)cc1
survivor count (dose: 50.0 mg/kg/injection, schedule: Q04DX002 (ip), vehicle: Klucel (hydroxypropylcellulose) (HPC)): 3 of 3 | survivor count (dose: 200.0 mg/kg/injection, schedule: Q04DX002 (ip), vehicle: Klucel (hydroxypropylcellulose) (HPC)): 3 of 3 | survivor count (dose: 400.0 mg/kg/injection, schedule: Q04DX002 (ip), vehicle: Klucel (hydroxypropylcellulose) (HPC)): 0 of 3

O=C(C#Cc1ccccc1)c1ccccc1
survivor count (dose: 40.0 mg/kg/injection, schedule: Q01DX001 (ip), vehicle: Klucel (hydroxypropylcellulose) (HPC)): 3 of 6 | survivor count (dose: 80.0 mg/kg/injection, schedule: Q01DX001 (ip), vehicle: Klucel (hydroxypropylcellulose) (HPC)): 2 of 6 | survivor count [1]: 1 of 6 | survivor count [2]: 0 of 6 | survivor count (dose: 400.0 mg/kg/injection, schedule: Q01DX001 (ip), vehicle: Klucel (hydroxypropylcellulose) (HPC)): 0 of 6

CCN(CC)CCOC(=O)N1c2ccccc2Sc2ccccc21
survivor count (dose: 200.0 mg/kg/injection, schedule: Q01DX009 (ip), vehicle: Klucel (hydroxypropylcellulose) (HPC)): 0 of 6 | survivor count (dose: 200.0 mg/kg/injection, schedule: Q04DX003 (ip), vehicle: saline with Tween-80): 3 of 6 | survivor count [6]: 0 of 6 | survivor count [4]: 1 of 6

CC[N+](CC)(CC)CCCNC(c1ccccc1)C(Cl)(Cl)Cl (stereo not drawn)
survivor count [8]: 0 of 4 | survivor count (dose: 200.0 mg/kg/injection, schedule: Q01DX001 (ip), vehicle: saline): 0 of 4 | survivor count [7]: 0 of 4

CCOC(=O)N1C=Cn2c(cnc2C)C1OC (stereo not drawn)
survivor count (dose: 100.0 mg/kg/injection, schedule: Q01DX009 (ip), vehicle: water): 6 of 6 | survivor count (dose: 400.0 mg/kg/injection, schedule: Q01DX009 (ip), vehicle: water): 2 of 6

O=[N+]([O-])c1cc(Cl)cc2c1-c1c(Cl)cc(Cl)cc1C2O (stereo not drawn)
survivor count (dose: 400.0 mg/kg/injection, schedule: Q01DX009 (ip), vehicle: Klucel (hydroxypropylcellulose) (HPC)): 2 of 6

CNC(=N)c1ccc(NC(=N)c2ccc(NC(=O)Nc3cccc(NC(=O)Nc4ccc(C(=N)Nc5ccc(C(=N)NC)cc5)cc4)c3)cc2)cc1
T/C (dose: 1.25 mg/kg/injection, schedule: Q01DX015 (ip), vehicle: water): 125 % of control | T/C (dose: 2.5 mg/kg/injection, schedule: Q01DX015 (ip), vehicle: water): 131 % of control | T/C (dose: 5.0 mg/kg/injection, schedule: Q01DX Z (ip), vehicle: water): 130 % of control | T/C (dose: 10.0 mg/kg/injection, schedule: Q01DX001 (ip), vehicle: water): 133 % of control | T/C (dose: 20.0 mg/kg/injection, schedule: Q01DX015 (ip), vehicle: water): 147 % of control | T/C (dose: 25.0 mg/kg/injection, schedule: Q01DX001 (ip), vehicle: water): 142, 152, 160, 176 % of control | T/C (dose: 50.0 mg/kg/injection, schedule: Q01DX001 (ip), vehicle: water, evaluated on day 5): 245 % of control | T/C (dose: 50.0 mg/kg/injection, schedule: Q01DX001 (ip), vehicle: water, run until all animals had died): 196, 201, 206, 318 % of control | survivor count (dose: 57.0 mg/kg/injection, schedule: Q01DX Z (ip), vehicle: water): 1 of 6 | T/C (dose: 75.0 mg/kg/injection, schedule: Q01DX001 (ip), vehicle: water, evaluated on day 5): 297 % of control | survivor count (dose: 75.0 mg/kg/injection, schedule: Q01DX001 (ip), vehicle: water): 5 of 10 | T/C (dose: 75.0 mg/kg/injection, schedule: Q01DX001 (ip), vehicle: water, run until all animals had died): 255 [8 of 10 alive] and 412 % of control | survivor count (dose: 100.0 mg/kg/injection, schedule: Q01DX001 (ip), vehicle: water): 3 of 6 | survivor count (dose: 114.0 mg/kg/injection, schedule: Q01DX Z (ip), vehicle: water): 0 of 6

CCN(CC)Cc1ccccc1COC(=O)c1ccc(OC)cc1
survivor count [9]: 1 of 3

O=S(=O)(C1=C(c2ccccc2)CCCC1)c1ccccc1
survivor count (dose: 200.0 mg/kg/injection, schedule: Q01DX009 (ip), vehicle: acetone): 6 of 6 | survivor count (dose: 400.0 mg/kg/injection, schedule: Q01DX009 (ip), vehicle: acetone): 6 of 6

CN1C(=O)C(C)(C)C(=O)C1(C)C
survivor count [8]: 6 of 6

CC(=O)NC1CCCC(C)C1 (stereo not drawn)
survivor count (dose: 400.0 mg/kg/injection, schedule: Q01DX009 (ip), vehicle: saline with Tween-80): 0 of 6

O=C1c2ccccc2-c2cccc3ccc(Cc4ccccc4)c1c23
survivor count (dose: 400.0 mg/kg/injection, schedule: Q01DX001 (ip), vehicle: saline with Tween-80): 3 of 3

OCCN1CCN(CCCN2c3ccccc3Oc3ccc(C(F)(F)F)cc32)CC1
survivor count (dose: 100.0 mg/kg/injection, schedule: Q04DX003 (ip), vehicle: saline): 1 of 4 | survivor count [3]: 0 of 4 | survivor count [5]: 1 of 4

[O-][n+]1ccc(-c2ccccc2)cc1
survivor count [9]: 1 of 3

CCCCCCCCCCCCCC[n+]1ccccc1
survivor count (dose: 4.0 mg/kg/injection, schedule: Q01DX001 (ip), vehicle: saline): 0 of 6 | survivor count (dose: 5.0 mg/kg/injection, schedule: Q01DX001 (ip), vehicle: saline): 0 of 6 | survivor count (dose: 8.0 mg/kg/injection, schedule: Q01DX001 (ip), vehicle: saline): 3 of 6 | survivor count (dose: 10.0 mg/kg/injection, schedule: Q01DX001 (ip), vehicle: saline): 3 of 6 | survivor count (dose: 20.0 mg/kg/injection, schedule: Q01DX001 (ip), vehicle: saline): 3 of 6 | survivor count (dose: 40.0 mg/kg/injection, schedule: Q01DX001 (ip), vehicle: saline): 0 of 6 | survivor count (dose: 80.0 mg/kg/injection, schedule: Q01DX001 (ip), vehicle: saline): 0 of 6
